Data from PubChem BioAssay AID328 (DTP/NCI, 2004).
The list shows only some results of the screen, not a fair sample: it gathers tests that were run many times, whatever their T/C, doses with no T/C, and many T/C values between a quarter and a half above the control. Further doses and runs are listed elsewhere. T/C: endpoint of the treated group in % of that of the vehicle group. Some entries give survivors of the animals treated and no T/C: the source files T/C as zero there, which appears to mark a toxic dose or a test without result, not a measured value. Some survivor counts are full or nearly so, which does not show that the dose was tolerated: survival well below the control is almost never listed, so the zero probably covers shortened survival too. Survivors were counted at the toxicity check, usually on the fifth day, unless a day is given; later deaths do not show. Schedule codes are those of the source, taken here to give the interval after Q, in days (D) or hours (H), and the number of doses after X. For survival time, the PubChem record calls one and a half times the control and up active, and a quarter to a half above the control has no call in these data; cut-offs in other NCI protocols can differ. Some T/C values are followed by the survivors on the day toxicity was checked, most often the fifth; without a count, all were alive then. Some entries were tested several times; their values stand side by side, smallest first.

Tested on: BDF1 mice, P388 leukemia ip, median survival T/C
Assay: NCI In Vivo Anticancer Drug Screen. Data for tumor model P388 Leukemia (intraperitoneal) in B6D2F1 (BDF1) mice
Conditions: T/C endpoint: median survival time, higher T/C = longer survival
Outline: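 Vehicle-dosed animals serve as the reference; survival of compound-dosed, tumour-implanted mice is divided by it.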

[1] = dose: 50.0 mg/kg/injection, schedule: Q01DX009 (ip), vehicle: saline with Tween-80
[2] = dose: 100.0 mg/kg/injection, schedule: Q01DX009 (ip), vehicle: saline with Tween-80
[3] = dose: 200.0 mg/kg/injection, schedule: Q04DX003 (ip), vehicle: saline with Tween-80
[4] = dose: 200.0 mg/kg/injection, schedule: Q01DX009 (ip), vehicle: saline with Tween-80
[5] = dose: 400.0 mg/kg/injection, schedule: Q01DX009 (ip), vehicle: saline with Tween-80
[6] = dose: 100.0 mg/kg/injection, schedule: Q01DX009 (ip), vehicle: Klucel (hydroxypropylcellulose) (HPC)
[7] = dose: 400.0 mg/kg/injection, schedule: Q01DX009 (ip), vehicle: saline
[8] = dose: 150.0 mg/kg/injection, schedule: Q01DX009 (ip), vehicle: saline with Tween-80
[9] = dose: 25.0 mg/kg/injection, schedule: Q01DX009 (ip), vehicle: saline with Tween-80
[10] = dose: 37.5 mg/kg/injection, schedule: Q01DX009 (ip), vehicle: saline with Tween-80

With `CS(=O)(=O)OCCCCOS(C)(=O)=O` the survivor count (dose: 12.5 mg/kg/injection, schedule: Q01DX010 (ip), vehicle: saline) was 6 of 6, the survivor count (dose: 25.0 mg/kg/injection, schedule: Q01DX010 (ip), vehicle: saline) was 6 of 6 and the survivor count (dose: 50.0 mg/kg/injection, schedule: Q01DX010 (ip), vehicle: saline) was 6 of 6.
`COC(/C=C\C(OC)OC)OC` was tested, and the T/C (dose: 6.25 mg/kg/injection, schedule: Q01DX009 (ip), vehicle: saline) was 125 % of control, the survivor count (dose: 35.0 mg/kg/injection, schedule: Q01DX009 (ip), vehicle: saline) was 1 of 6 and the survivor count (dose: 55.0 mg/kg/injection, schedule: Q01DX009 (ip), vehicle: saline) was 0 of 6. The survivor count (dose: 75.0 mg/kg/injection, schedule: Q04DX003 (ip), vehicle: saline) was 4 of 6 and the survivor count (dose: 80.0 mg/kg/injection, schedule: Q01DX009 (ip), vehicle: saline) was 0 of 6.
With `CC(C)CC(NC(=O)CF)C(=O)O` (stereo unspecified) the T/C (dose: 5.0 mg/kg/injection, schedule: Q01DX009 (ip), vehicle: saline) was 132 % of control [4 of 6 alive] and the survivor count (dose: 10.0 mg/kg/injection, schedule: Q01DX009 (ip), vehicle: saline) was 2 of 6.
In the case of `CCOC(=O)C1CNc2ccccc2N1` (stereo unspecified), the survivor count (dose: 28.75 mg/kg/injection, schedule: Q04DX003 (ip), vehicle: Klucel (hydroxypropylcellulose) (HPC)) was 6 of 6, the survivor count (dose: 170.0 mg/kg/injection, schedule: Q01DX009 (ip), vehicle: Klucel (hydroxypropylcellulose) (HPC)) was 3 of 6 and the survivor count (dose: 170.0 mg/kg/injection, schedule: Q04DX003 (ip), vehicle: Klucel (hydroxypropylcellulose) (HPC)) was 2 of 6. For the same compound, the survivor count (dose: 260.0 mg/kg/injection, schedule: Q01DX001 (ip), vehicle: Klucel (hydroxypropylcellulose) (HPC)) was 0 of 6, the survivor count (dose: 260.0 mg/kg/injection, schedule: Q04DX003 (ip), vehicle: Klucel (hydroxypropylcellulose) (HPC)) was 1 of 6 and the survivor count (dose: 390.0 mg/kg/injection, schedule: Q01DX001 (ip), vehicle: Klucel (hydroxypropylcellulose) (HPC)) was 0 of 6. For the same compound, the survivor count (dose: 390.0 mg/kg/injection, schedule: Q04DX003 (ip), vehicle: Klucel (hydroxypropylcellulose) (HPC)) was 0 of 6.
`Cn1nc(N)c2ncc(C(Cl)(Cl)Cl)nc21` was tested, and the survivor count [1] was 6 of 6, the survivor count [2] was 4 of 6 and the survivor count [3] was 3 of 6.
`Sc1ccc(Nc2c3ccccc3nc3ccccc23)cc1` was tested, and the T/C [4] was 125 [5 of 6 alive] and 134 % of control and the survivor count [5] was 5 of 6.
`O=C1C(=O)c2ccccc2-c2ccccc21` was tested, and the survivor count (dose: 12.5 mg/kg/injection, schedule: Q01DX009 (ip), vehicle: carboxymethylcellulose (CMC)) was 2 of 6, the survivor count (dose: 25.0 mg/kg/injection, schedule: Q01DX009 (ip), vehicle: carboxymethylcellulose (CMC)) was 1 of 6 and the survivor count (dose: 50.0 mg/kg/injection, schedule: Q01DX009 (ip), vehicle: carboxymethylcellulose (CMC)) was 4 of 6. For the same compound, the survivor count (dose: 100.0 mg/kg/injection, schedule: Q01DX009 (ip), vehicle: carboxymethylcellulose (CMC)) was 4 of 6.
`O=C1OC(=O)c2c(Br)c(Br)c(Br)c(Br)c21` was tested, and the survivor count (dose: 16.5 mg/kg/injection, schedule: Q01DX009 (ip), vehicle: saline with Tween-80) was 6 of 6.
For `N#Cc1c(N)sc(N)c1C#N`, the T/C [6] was 125 % of control.
For `C/C(=C/c1c(C)[nH]c(=O)[nH]c1=O)C(=O)O`, the survivor count [7] was 5 of 6.
`CC1(C)OCC(/C=C/C=N/Nc2ccc([N+](=O)[O-])cc2)O1` (stereo unspecified) was tested, and the survivor count (dose: 400.0 mg/kg/injection, schedule: Q01DX001 (ip), vehicle: saline with Tween-80) was 3 of 6.
In the case of `COC1C(OC(=O)/C=C/C=C/C=C/C=C/C(=O)O)CCC2(CO2)C1C1(C)OC1CC=C(C)C` (stereo unspecified), the T/C (dose: 100.0 mg/kg/injection, schedule: Q01DX009 (ip), vehicle: saline) was 141 % of control, the T/C (dose: 200.0 mg/kg/injection, schedule: Q01DX009 (ip), vehicle: saline) was 125 % of control and the survivor count [3] was 6 of 6. The T/C (dose: 266.0 mg/kg/injection, schedule: Q04DX003 (ip), vehicle: saline) was 125 % of control, the survivor count [7] was 0 of 6 and the T/C (dose: 400.0 mg/kg/injection, schedule: Q04DX003 (ip), vehicle: saline) was 130 and 133 % of control [5 of 6 alive]. For the same compound, the survivor count (dose: 600.0 mg/kg/injection, schedule: Q04DX003 (ip), vehicle: saline) was 1 of 6.
For `CCNC(C)(C)C(=O)c1ccc(Cl)s1`, the survivor count [4] was 6 of 6 and the survivor count [5] was 4 of 6.
For `ClC1(c2ccccc2)c2ccc(Br)cc2-c2cc(Br)ccc21`, the T/C [6] was 125 % of control, the T/C [8] was 126 % of control [5 of 6 alive] and the survivor count (dose: 400.0 mg/kg/injection, schedule: Q01DX009 (ip), vehicle: Klucel (hydroxypropylcellulose) (HPC)) was 5 of 6.
For `Cc1c2oc3c(C)ccc(C(=O)NC4C(=O)NC(C(C)C)C(=O)N5CCCC5C(=O)N(C)CC(=O)N(C)C(C(C)C)C(=O)OC4C)c3nc-2c(C(=O)NC2C(=O)NC(C(C)C)C(=O)N3CCCC3C(=O)N(C)CC(=O)N(C)C(C(C)C)C(=O)OC2C)cc1=O` (stereo unspecified), the T/C (dose: 1.94 mg/kg/injection, schedule: Q04DX003 (ip), vehicle: saline + alcohol) was 149 % of control, the T/C (dose: 2.4 mg/kg/injection, schedule: Q04DX003 (ip), vehicle: saline + alcohol) was 130 % of control and the T/C (dose: 3.4 mg/kg/injection, schedule: Q04DX003 (ip), vehicle: saline + alcohol) was 133 % of control. The T/C (dose: 4.9 mg/kg/injection, schedule: Q01DX001 (ip), vehicle: saline + alcohol) was 134 % of control, the T/C (dose: 5.4 mg/kg/injection, schedule: Q04DX003 (ip), vehicle: saline + alcohol) was 132 % of control and the T/C (dose: 7.0 mg/kg/injection, schedule: Q01DX001 (ip), vehicle: saline + alcohol) was 134 % of control.
`CCC[CH2][Hg][Cl]` was tested, and the T/C (dose: 5.0 mg/kg/injection, schedule: Q01DX009 (ip), vehicle: other) was 125 % of control, the T/C (dose: 10.0 mg/kg/injection, schedule: Q01DX009 (ip), vehicle: other) was 135 % of control and the survivor count (dose: 20.0 mg/kg/injection, schedule: Q01DX009 (ip), vehicle: other) was 6 of 6. The T/C [9] was 142 % of control, the survivor count [9] was 2 of 6 and the T/C (dose: 25.0 mg/kg/injection, schedule: Q04DX003 (ip), vehicle: saline sonified) was 125 % of control. For the same compound, the survivor count [10] was 1 of 6 and the survivor count [1] was 1 of 6.
With `Clc1nc2nc[nH]c2nc1Cl` the survivor count [2] was 5 of 6.
For `CN=C(NC#N)NCCSCc1nc[nH]c1C`, the T/C (dose: 12.5 mg/kg/injection, schedule: Q01DX005 (ip), vehicle: Klucel (hydroxypropylcellulose) (HPC)) was 129 % of control and the T/C (dose: 50.0 mg/kg/injection, schedule: Q01DX005 (ip), vehicle: Klucel (hydroxypropylcellulose) (HPC)) was 125 % of control.
In the case of `CCCCCCCCCCCCCCCCCCOC(=O)Cc1ccc(N(CCCl)CCCl)cc1`, the T/C (dose: 44.0 mg/kg/injection, schedule: Q01DX007 (ip), vehicle: Klucel (hydroxypropylcellulose) (HPC)) was 142 % of control, the T/C (dose: 200.0 mg/kg/injection, schedule: Q01DX009 (ip), vehicle: Klucel (hydroxypropylcellulose) (HPC)) was 138 % of control and the T/C (dose: 200.0 mg/kg/injection, schedule: Q04DX002 (ip), vehicle: Klucel (hydroxypropylcellulose) (HPC)) was 142 % of control. For the same compound, the T/C (dose: 266.0 mg/kg/injection, schedule: Q04DX003 (ip), vehicle: Klucel (hydroxypropylcellulose) (HPC)) was 129 % of control [5 of 6 alive] and the T/C (dose: 266.0 mg/kg/injection, schedule: Q04DX003 (ip), vehicle: saline with Tween-80) was 141 % of control.
For `CCCCCCCCCCCCCCCC(=O)N(c1ccc(NC(=O)Nc2ccc(N(C(=O)CCCCCCCCCCCCCCC)C(C)CCCN(CC)CC)cc2)cc1)C(C)CCCN(CC)CC` (stereo unspecified), the survivor count (dose: 18.75 mg/kg/injection, schedule: Q01DX009 (ip), vehicle: saline with Tween-80) was 4 of 6, the survivor count [10] was 6 of 6 and the survivor count (dose: 75.0 mg/kg/injection, schedule: Q01DX009 (ip), vehicle: saline with Tween-80) was 6 of 6. For the same compound, the survivor count [2] was 6 of 6, the survivor count [8] was 6 of 6 and the survivor count [4] was 6 of 6. The survivor count [5] was 6 of 6.
